± gives the standard deviation of the averaged measurements. This is one part of the list. Repeats are few or missing, and single values can be far off.
Test system: Plasmodium berghei sporozoites
Assay: residual sporozoite gliding motility relative to DMSO control; higher = less inhibition of motility
Conditions: 10 µM; incubation time 30 min

Residual sporozoite gliding motility, 77.3 ± 17%:
OC(CNCC1CCCO1)Cn1c2ccc(Cl)cc2c2cc(Cl)ccc21 (stereo unspecified)

Residual sporozoite gliding motility, 19.7 ± 1.5%:
O=C(Nc1ccc(Cl)c(Cl)c1)Nc1ccc(Cl)c(Cl)c1

Residual sporozoite gliding motility, 27.7 ± 7.4%:
O=C(Nc1cccc(C(F)(F)F)c1)c1cc(Cl)ccc1O

Residual sporozoite gliding motility, > 50%:
CCn1c(CN2CCN(Cc3ccccc3)CC2)nc2cc(NC(=O)c3cccs3)ccc21, COc1ccc(C(=O)NC(c2ccccc2Cl)c2cc(Cl)c3cccnc3c2O)cc1 (stereo unspecified), O=c1nc(C=Cc2ccc(Cl)cc2)oc2ccccc12, O=C(Nc1ccc(Cl)cc1)N1CCN(c2ccc3nncn3n2)CC1, Cc1ccc(C(=O)c2oc3ccc4c(C)cc(=O)oc4c3c2C)cc1, O=C(Nc1ccc(N2CCCCC2)c(Cl)c1)c1ccc(Br)o1, Cc1cc(C)c2nc(N3CCC(C(=O)NCCCN4CCC(N5CCCCC5)CC4)CC3)sc2c1, CN(C)CCCNCc1ccc(-c2ccc(F)c(Cl)c2)o1, O=C1c2ccccc2C2=Nc3ccccc3SC(c3cccc(F)c3)C12 (stereo unspecified), Cc1ccc(-c2cc3c(nn2)-c2ccccc2C3=O)cc1, CC(NCc1ccccc1)c1cc(Cl)ccc1O (stereo unspecified), CCC(C)NCC(O)(c1ccc(Cl)cc1)c1ccc(Cl)cc1 (stereo unspecified), O=C(NCC1Cc2cccc(-c3ccncc3)c2O1)c1csc2c1CCCC2 (stereo unspecified), CCCCNCC(O)(c1ccc(Cl)cc1)c1ccc(Cl)cc1, CCOc1cc(Cl)c(C(C)NC(=O)c2ccccc2)cc1OCC (stereo unspecified), OC1=C2C(=Nc3ccccc3SC2c2ccc(Br)cc2)c2ccccc21 (stereo unspecified), CCn1c2c(c(=N)c3c1CCC3)CCCC2, COc1cccc(NC(=O)[C@H](C(C)C)n2c(=O)[nH]c3ccccc3c2=O)c1, CCOc1c(Br)cc(C2C(C(=O)OC)=CN(C)C=C2C(=O)OC)cc1OC, Cc1cc(C)cc(Nc2cc(C)nc3nc(C(F)(F)F)nn23)c1, COc1cc(C(=O)Nc2ccc(-c3nc4ccccc4[nH]3)cc2)cc(OC)c1OC, COc1ccc(C(C)=O)cc1N1C(=O)C2C(C1=O)C1(c3ccccc3)C(=O)C2(c2ccccc2)C(c2ccc(C)cc2)=C1c1ccc(C)cc1 (stereo unspecified), Cc1cc(NC(=O)c2ccc(-c3ccccc3)cc2)no1, COc1ccc(-c2nonc2NC(=O)c2cccc(C)c2)cc1OC, CCN(CC)CCNc1ncnc2c1[nH]c1ccc(Cl)cc12, CCN(CC)CCNc1ccnc2cc(Cl)ccc12, CCCc1c(CC)c(=N)c2ccccc2n1C, CCc1ccc(CNCC(O)c2ccccc2)cc1 (stereo unspecified), CCC(=O)Nc1nnc(Cc2ccc(OC)c(OC)c2)s1, Cc1cc(N2CCN(C3CCCC3)CC2)n2c(nc3ccccc32)c1C#N, COc1ccc(CCN2CCC(CN(C)Cc3cnn(-c4ccccc4)c3)CC2)cc1, COc1ccccc1NC1=C(N2CCCCC2)C(=O)c2ccccc2C1=O, COc1cc(-c2nc(-c3ccccc3)c(-c3ccccc3)[nH]2)cc(OC)c1O
